Measured values reported in article PMC7078210.

By UniProt entry, the sequences of proteins in these tests, tags left out.
UniProt A0A1S4BMC2, entry or part of it D183A: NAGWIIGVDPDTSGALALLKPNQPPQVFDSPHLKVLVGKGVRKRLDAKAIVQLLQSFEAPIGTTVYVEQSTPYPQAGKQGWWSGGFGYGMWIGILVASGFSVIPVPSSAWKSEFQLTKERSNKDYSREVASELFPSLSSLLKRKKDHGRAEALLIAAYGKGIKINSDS
UniProt A0A1S4BMC2, entry or part of it K185D: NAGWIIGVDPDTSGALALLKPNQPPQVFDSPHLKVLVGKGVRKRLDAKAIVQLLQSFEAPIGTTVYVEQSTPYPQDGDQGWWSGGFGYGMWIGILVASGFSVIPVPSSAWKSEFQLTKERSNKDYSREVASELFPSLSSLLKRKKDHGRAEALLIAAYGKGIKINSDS
UniProt A0A1S4BMC2, entry or part of it K218D: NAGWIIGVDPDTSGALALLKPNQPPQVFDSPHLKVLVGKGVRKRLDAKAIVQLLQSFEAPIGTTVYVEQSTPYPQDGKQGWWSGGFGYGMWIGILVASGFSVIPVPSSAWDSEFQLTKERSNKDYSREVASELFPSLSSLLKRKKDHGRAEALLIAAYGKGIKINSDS
UniProt A0A1S4BMC2, entry or part of it R149D: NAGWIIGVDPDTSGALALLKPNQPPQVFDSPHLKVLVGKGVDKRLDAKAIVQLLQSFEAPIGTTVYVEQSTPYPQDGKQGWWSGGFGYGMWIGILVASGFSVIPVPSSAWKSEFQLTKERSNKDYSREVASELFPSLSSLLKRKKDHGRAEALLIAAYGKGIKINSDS
UniProt A0A1S4BMC2, entry or part of it K252D R250D K251D K252D: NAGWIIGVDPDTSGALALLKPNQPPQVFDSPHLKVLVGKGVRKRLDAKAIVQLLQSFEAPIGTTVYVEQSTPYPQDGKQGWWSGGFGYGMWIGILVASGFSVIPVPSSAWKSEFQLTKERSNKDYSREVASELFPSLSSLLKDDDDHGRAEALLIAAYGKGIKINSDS
UniProt A0A1S4BMC2, entry or part of it R149D K185D K218D K225D: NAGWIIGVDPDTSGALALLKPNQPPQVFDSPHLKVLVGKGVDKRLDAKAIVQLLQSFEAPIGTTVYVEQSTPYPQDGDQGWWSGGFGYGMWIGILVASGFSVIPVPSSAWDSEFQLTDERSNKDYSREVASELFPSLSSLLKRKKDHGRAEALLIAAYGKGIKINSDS
UniProt A0A1S4BMC2, entry or part of it: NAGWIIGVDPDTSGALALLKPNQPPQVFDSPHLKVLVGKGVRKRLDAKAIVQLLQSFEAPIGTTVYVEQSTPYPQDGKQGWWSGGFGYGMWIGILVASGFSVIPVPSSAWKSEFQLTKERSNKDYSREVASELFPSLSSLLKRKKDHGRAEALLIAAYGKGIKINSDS

Key:
Test in all cases: EMSA
[1] = target: NtMOC1 D183A (Nicotiana tabacum) (UniProt A0A1S4BMC2); conditions: 5 mM EDTA, partially decreased, EMSA: 50 mM Tris-HCl pH 8.0, 1 mM DTT, 10% glycerol, 25 C, 30 min, HJ 250 nM, protein 0-1000 nM, 6% native PAGE, no MgCl2, recombinant protein, protein details: 6xHis N-term, removed (DrICE), label: none (GelRed stain), folded or branched DNA
[2] = target: NtMOC1 K185D (Nicotiana tabacum) (UniProt A0A1S4BMC2); conditions: 5 mM EDTA, equivalent to WT, EMSA: 50 mM Tris-HCl pH 8.0, 1 mM DTT, 10% glycerol, 25 C, 30 min, HJ 250 nM, protein 0-1000 nM, 6% native PAGE, no MgCl2, recombinant protein, protein details: 6xHis N-term, removed (DrICE), label: none (GelRed stain), folded or branched DNA
[3] = target: NtMOC1 K218D (Nicotiana tabacum) (UniProt A0A1S4BMC2); conditions: 5 mM EDTA, equivalent to WT, EMSA: 50 mM Tris-HCl pH 8.0, 1 mM DTT, 10% glycerol, 25 C, 30 min, HJ 250 nM, protein 0-1000 nM, 6% native PAGE, no MgCl2, recombinant protein, protein details: 6xHis N-term, removed (DrICE), label: none (GelRed stain), folded or branched DNA
[4] = target: NtMOC1 R149D (Nicotiana tabacum) (UniProt A0A1S4BMC2); conditions: 5 mM EDTA, equivalent to WT, EMSA: 50 mM Tris-HCl pH 8.0, 1 mM DTT, 10% glycerol, 25 C, 30 min, HJ 250 nM, protein 0-1000 nM, 6% native PAGE, no MgCl2, recombinant protein, protein details: 6xHis N-term, removed (DrICE), label: none (GelRed stain), folded or branched DNA
[5] = target: NtMOC1 R250/K251/K252D R250D,K251D,K252D (Nicotiana tabacum) (UniProt A0A1S4BMC2); conditions: 5 mM EDTA, total loss of binding, EMSA: 50 mM Tris-HCl pH 8.0, 1 mM DTT, 10% glycerol, 25 C, 30 min, HJ 250 nM, protein 0-1000 nM, 6% native PAGE, no MgCl2, recombinant protein, protein details: 6xHis N-term, removed (DrICE), label: none (GelRed stain), folded or branched DNA
[6] = target: NtMOC1 Tetra-M R149D,K185D,K218D,K225D (Nicotiana tabacum) (UniProt A0A1S4BMC2); conditions: 5 mM EDTA, total loss of binding, EMSA: 50 mM Tris-HCl pH 8.0, 1 mM DTT, 10% glycerol, 25 C, 30 min, HJ 250 nM, protein 0-1000 nM, 6% native PAGE, no MgCl2, recombinant protein, protein details: 6xHis N-term, removed (DrICE), label: none (GelRed stain), folded or branched DNA
[7] = target: NtMOC1 WT (Nicotiana tabacum) (UniProt A0A1S4BMC2); conditions: 5 mM EDTA, EMSA: 50 mM Tris-HCl pH 8.0, 1 mM DTT, 10% glycerol, 25 C, 30 min, HJ 250 nM, protein 0-1000 nM, 6% native PAGE, no MgCl2, recombinant protein, protein details: 6xHis N-term, removed (DrICE), label: none (GelRed stain), folded or branched DNA

Q: What does the source list for “GGGCAAAGATGTCCCTCTGTTGTAATCG / CCAGTGCCTTGCTGGGACATCTTTGCCC / TAGACAGCTCCATCCAGCAAGGCACTGG / CGATTACAACAGAGGATGGAGCTGTCTA [X2 (CCGG) HJ]”?
A: binding result [1]: binds more weakly; binding result [2]: binds; binding result [3]: binds; binding result [4]: binds; binding result [5]: no binding; binding result [6]: no binding; binding result [7]: binds

Construct, isoform or probe ends are uncertain for at least one entry. For some of these results: A negative result means that nothing was seen under these conditions. For some of these results: At least one verdict was read from the data and is not stated in words by the source. For some of these results: The comparison behind a weaker result is the experiment's own reference, which may not be listed here.
